Measurements from patent US20260035723.
Construct, isoform or probe ends are uncertain for at least one entry. Tags and fusion partners may be left off the protein sequences shown.

Biological target: T1, Exonuclease III (Escherichia coli) (UniProt P09030)
T1 sequence (looked up, limits assumed): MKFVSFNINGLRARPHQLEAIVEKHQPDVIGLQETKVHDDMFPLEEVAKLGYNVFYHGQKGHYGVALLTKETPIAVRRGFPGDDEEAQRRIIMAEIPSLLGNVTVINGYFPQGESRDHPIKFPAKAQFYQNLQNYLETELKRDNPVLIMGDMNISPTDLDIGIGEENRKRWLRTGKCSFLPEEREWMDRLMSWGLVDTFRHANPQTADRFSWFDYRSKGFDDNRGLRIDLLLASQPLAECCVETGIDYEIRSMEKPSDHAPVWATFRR
Assay: enzyme reaction in vitro
Conditions: PS at first-strand 5' nucleotides, ssDNA produced even without added AP endonuclease, CutSmart buffer, purified recombinant protein, protein details: 4basebio

Row | Sequence | activity on this sequence (abasic site at position 6 of second strand, no visible dsDNA remains) | activity on this sequence (abasic site at position 8 of second strand)
1 | GGCCAACAAATGTTAG / AGGGCAACATTTGTTGGCC [adaptor abasic 1 (ligated to target DNA)] | active | –
2 | GGCCAACAAATGTTAG / AGGGCTACATTTGTTGGCC [adaptor abasic 2 (ligated to target DNA)] | – | active
